Test results reported in publication PMC5780041.
No constants are given. Whether binding was seen depends on the method and setting. Binding seen in cells or lysates may run through a third protein. Here binding means that the protein was enriched with, or labelled near, the bait; the list need not be complete.

By UniProt entry, the sequences of proteins in these tests, tags left out. Where a name states a change or a piece, a line headed by the entry shows the natural chain unless it says otherwise.
UniProt P51149: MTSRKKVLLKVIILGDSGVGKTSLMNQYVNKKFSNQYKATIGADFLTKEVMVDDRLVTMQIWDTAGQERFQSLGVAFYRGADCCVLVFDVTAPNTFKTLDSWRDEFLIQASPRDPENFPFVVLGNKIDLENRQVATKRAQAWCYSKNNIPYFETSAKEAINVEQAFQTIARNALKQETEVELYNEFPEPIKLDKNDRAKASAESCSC

Target: 2 × HA-tagged RAB7A T22N mutant (UniProt P51149)
Assay: affinity purification with mass spectrometry; TBC1D15/17 DKO HCT116 cells with mCherry-Parkin and 2HA-RAB7A (T22N), DMSO or valinomycin 3 hr; cells cross-linked with 5 mM DTBP; lysis in MCLB buffer (0.5% NP40); anti-HA beads overnight at 4°C, HA peptide elution; CompPASS analysis

B1: GDI1 (protein, UniProt P31150 1-447)
chain: MDEEYDVIVLGTGLTECILSGIMSVNGKKVLHMDRNPYYGGESSSITPLEELYKRFQLLEGPPESMGRGRDWNVDLIPKFLMANGQLVKMLLYTEVTRYLDFKVVEGSFVYKGGKIYKVPSTETEALASNLMGMFEKRRFRKFLVFVANFDENDPKTFEGVDPQTTSMRDVYRKFDLGQDVIDFTGHALALYRTDDYLDQPCLETVNRIKLYSESLARYGKSPYLYPLYGLGELPQGFARLSAIYGGTYMLNKPVDDIIMENGKVVGVKSEGEVARCKQLICDPSYIPDRVRKAGQVIRIICILSHPIKNTNDANSCQIIIPQNQVNRKSDIYVCMISYAHNVAAQGKYIAIASTTVETTDPEKEVEPALELLEPIDQKFVAISDLYEPIDDGCESQVFCSCSYDATTHFETTCNDIKDIYKRMAGTAFDFENMKRKQNDVFGEAEQ
- binding: binds
